This note sets out measurements from patent US20250270328A1.

Results are given in words; binding and its absence hold for the method and conditions named. Some entries that bind do so weakly or less than the wild type.

Assay [1] has as its target T1, cynomolgus KLRB1 expressed on CHO-K1 cells (CHO-cyno-KLRB1) (cynomolgus).
T1 sequence: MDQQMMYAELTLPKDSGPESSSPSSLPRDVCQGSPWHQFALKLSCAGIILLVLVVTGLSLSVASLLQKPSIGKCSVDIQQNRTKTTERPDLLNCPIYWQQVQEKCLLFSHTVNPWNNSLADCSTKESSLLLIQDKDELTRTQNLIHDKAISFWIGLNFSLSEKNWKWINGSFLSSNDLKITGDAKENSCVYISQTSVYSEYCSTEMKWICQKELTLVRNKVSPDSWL
Description: FACS on CHO-cyno-KLRB1 cells, concentration range up to 90 nM.

Assay [2] has the same target. Description: FACS on CHO-cyno-KLRB1 cells.

B1: 10A3D6hum2.2 (antibody, human IgG1, kappa, V domains shown)
VH: QVQLVQSGAEVKKPGASVKVSCKASGYSFTGYTMNWVRQAPGQNLEWIGLINPNTGGTYYNQKFKDRVTLTVDTSISTAYMELSRLRSDDTAVYYCARLGDNYRGYFDSWGQGTTVTVSS
VL: DIQLTQSPSFLSASVGDRVTITCKASQDVGTAVVWYQQKPGKAPKLLIDWASIRHTGVPSRFSGSGSGTEFTLTISSLQPEDFADYFCQQYSTYLYTFGGGTKLEIKR
Consider B1, for which the binding result in assay [1] and in assay [2] was “binds” each time.
